The list shows a part of the results.
Each target was assayed with CS(=O)(=O)CCNCc1ccc(-c2ccc3ncnc(Nc4ccc(OCc5cccc(F)c5)c(Cl)c4)c3c2)o1 [lapatinib] (assay: log2 fold change, soluble protein after heating vs DMSO (PISA); higher = thermal stabilisation; K562 lysate, 10 uM; active = over 0.2 and 3.5 SD of the protein, either way, in both replicates (recomputed)).
In short: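 Following dounce homogenisation of K562 pellets in PBS pH 7.4 with 1 mM MgCl2, crude extract at 1 mg/mL protein was incubated for 30 min with 10 μM compound. Aliquots were then heated for 3 min over 48°C-58°C and pooled, NP-40 was added to 0.5% at 4°C, and soluble protein was recovered as the supernatant at 21,000xg for 90 min. Channel-sum-equalised TMTpro 16plex LC-MS/MS quantified this protein. Each value, from duplicates, is a log-two fold change in thermal stability relative to solvent controls.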

Sequences of proteins named here, by UniProt entry; tags and fusion partners are left off. A change or cut given only in a name is not applied to a line headed by its entry.
UniProt Q9NVG8: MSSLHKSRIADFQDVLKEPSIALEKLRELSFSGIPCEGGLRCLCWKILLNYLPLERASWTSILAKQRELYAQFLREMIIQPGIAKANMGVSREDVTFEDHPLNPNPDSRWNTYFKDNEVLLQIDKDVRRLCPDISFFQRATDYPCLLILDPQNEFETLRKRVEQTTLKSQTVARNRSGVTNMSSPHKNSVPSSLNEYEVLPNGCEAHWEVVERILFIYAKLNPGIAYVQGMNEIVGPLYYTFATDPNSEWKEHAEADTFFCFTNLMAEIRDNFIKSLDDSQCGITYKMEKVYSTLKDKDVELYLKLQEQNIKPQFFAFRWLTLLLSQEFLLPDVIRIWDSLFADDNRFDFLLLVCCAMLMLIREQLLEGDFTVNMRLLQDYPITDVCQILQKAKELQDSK
UniProt Q9NXF1: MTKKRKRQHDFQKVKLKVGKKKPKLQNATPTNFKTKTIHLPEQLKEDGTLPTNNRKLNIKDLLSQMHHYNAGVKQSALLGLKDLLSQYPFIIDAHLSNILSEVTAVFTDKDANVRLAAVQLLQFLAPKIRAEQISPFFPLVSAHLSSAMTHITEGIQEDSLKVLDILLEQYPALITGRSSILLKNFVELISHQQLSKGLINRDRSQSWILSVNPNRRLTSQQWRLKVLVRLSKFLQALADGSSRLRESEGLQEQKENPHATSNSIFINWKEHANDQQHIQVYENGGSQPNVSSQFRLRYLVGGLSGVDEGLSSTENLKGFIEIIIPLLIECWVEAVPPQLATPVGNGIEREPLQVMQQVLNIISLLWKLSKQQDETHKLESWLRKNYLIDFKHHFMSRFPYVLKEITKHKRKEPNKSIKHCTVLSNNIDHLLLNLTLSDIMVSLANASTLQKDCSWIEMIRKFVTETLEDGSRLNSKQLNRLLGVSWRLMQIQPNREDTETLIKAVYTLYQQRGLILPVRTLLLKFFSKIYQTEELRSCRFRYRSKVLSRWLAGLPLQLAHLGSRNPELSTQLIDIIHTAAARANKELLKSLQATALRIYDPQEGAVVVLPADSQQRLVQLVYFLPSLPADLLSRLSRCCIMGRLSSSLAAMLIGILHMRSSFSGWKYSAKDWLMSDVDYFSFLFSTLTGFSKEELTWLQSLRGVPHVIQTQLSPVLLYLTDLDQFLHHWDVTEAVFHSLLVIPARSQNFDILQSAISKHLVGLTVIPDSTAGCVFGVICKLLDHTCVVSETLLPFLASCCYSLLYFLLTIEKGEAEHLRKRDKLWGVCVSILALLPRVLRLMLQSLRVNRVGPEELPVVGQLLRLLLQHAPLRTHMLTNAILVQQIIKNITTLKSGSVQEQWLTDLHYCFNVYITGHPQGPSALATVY
UniProt Q9Y6J9: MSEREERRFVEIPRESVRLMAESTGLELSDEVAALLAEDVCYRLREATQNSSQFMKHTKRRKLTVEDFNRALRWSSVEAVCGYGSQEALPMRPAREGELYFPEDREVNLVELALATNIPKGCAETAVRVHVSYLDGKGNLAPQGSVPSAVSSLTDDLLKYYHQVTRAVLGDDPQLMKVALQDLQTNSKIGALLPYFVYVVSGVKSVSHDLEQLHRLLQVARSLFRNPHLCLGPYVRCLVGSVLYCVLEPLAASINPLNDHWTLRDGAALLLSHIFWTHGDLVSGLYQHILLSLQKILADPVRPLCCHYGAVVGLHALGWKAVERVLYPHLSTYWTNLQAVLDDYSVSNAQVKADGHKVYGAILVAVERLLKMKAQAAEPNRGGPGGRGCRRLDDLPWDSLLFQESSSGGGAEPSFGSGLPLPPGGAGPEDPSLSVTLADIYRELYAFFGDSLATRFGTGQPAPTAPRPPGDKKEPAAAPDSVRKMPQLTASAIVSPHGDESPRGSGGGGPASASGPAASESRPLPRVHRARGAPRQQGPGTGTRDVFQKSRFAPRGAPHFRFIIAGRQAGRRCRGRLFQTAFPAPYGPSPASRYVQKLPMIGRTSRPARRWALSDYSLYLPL
UniProt Q15554: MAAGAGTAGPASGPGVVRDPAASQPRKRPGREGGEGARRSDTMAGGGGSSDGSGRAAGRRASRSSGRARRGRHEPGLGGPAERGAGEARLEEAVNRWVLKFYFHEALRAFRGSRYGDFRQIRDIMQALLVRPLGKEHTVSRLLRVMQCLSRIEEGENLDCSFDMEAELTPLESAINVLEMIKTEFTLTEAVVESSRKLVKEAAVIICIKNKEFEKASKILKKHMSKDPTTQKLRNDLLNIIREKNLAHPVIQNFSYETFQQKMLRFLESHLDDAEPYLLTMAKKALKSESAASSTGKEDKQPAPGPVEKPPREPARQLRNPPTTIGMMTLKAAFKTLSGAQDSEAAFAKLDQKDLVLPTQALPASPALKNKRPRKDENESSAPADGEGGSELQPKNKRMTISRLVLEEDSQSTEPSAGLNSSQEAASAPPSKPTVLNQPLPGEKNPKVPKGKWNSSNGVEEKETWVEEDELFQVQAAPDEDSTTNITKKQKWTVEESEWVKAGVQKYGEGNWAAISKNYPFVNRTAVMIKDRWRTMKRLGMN
UniProt Q0IIM8: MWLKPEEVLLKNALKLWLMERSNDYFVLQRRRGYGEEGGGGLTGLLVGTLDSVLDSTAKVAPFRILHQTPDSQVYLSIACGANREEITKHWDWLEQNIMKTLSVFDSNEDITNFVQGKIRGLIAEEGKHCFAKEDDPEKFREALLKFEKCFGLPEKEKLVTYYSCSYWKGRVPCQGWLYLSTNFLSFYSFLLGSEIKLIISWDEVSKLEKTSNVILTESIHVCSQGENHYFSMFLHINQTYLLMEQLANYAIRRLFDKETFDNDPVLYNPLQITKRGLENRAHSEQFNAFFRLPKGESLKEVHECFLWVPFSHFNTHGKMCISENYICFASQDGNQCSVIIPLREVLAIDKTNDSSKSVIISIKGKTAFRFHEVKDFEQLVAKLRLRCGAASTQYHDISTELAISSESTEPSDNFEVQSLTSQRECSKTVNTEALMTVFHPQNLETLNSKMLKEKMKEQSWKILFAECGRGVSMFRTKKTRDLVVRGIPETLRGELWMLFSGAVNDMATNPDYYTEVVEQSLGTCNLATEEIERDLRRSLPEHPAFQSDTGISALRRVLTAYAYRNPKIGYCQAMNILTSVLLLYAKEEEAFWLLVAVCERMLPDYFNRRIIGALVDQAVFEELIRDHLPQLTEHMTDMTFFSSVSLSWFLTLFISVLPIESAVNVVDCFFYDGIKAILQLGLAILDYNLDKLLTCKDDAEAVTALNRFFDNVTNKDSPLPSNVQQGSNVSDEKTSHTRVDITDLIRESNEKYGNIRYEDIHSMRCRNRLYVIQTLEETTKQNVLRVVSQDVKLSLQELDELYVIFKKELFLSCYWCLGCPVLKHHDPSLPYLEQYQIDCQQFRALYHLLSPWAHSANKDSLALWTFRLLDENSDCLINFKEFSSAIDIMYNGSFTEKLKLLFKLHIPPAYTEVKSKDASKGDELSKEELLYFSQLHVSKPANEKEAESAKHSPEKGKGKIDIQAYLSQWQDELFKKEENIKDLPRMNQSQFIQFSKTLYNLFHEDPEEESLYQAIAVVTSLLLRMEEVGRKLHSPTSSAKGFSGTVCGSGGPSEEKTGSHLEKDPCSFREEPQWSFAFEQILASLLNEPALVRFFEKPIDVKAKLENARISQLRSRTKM
UniProt Q8NFU7: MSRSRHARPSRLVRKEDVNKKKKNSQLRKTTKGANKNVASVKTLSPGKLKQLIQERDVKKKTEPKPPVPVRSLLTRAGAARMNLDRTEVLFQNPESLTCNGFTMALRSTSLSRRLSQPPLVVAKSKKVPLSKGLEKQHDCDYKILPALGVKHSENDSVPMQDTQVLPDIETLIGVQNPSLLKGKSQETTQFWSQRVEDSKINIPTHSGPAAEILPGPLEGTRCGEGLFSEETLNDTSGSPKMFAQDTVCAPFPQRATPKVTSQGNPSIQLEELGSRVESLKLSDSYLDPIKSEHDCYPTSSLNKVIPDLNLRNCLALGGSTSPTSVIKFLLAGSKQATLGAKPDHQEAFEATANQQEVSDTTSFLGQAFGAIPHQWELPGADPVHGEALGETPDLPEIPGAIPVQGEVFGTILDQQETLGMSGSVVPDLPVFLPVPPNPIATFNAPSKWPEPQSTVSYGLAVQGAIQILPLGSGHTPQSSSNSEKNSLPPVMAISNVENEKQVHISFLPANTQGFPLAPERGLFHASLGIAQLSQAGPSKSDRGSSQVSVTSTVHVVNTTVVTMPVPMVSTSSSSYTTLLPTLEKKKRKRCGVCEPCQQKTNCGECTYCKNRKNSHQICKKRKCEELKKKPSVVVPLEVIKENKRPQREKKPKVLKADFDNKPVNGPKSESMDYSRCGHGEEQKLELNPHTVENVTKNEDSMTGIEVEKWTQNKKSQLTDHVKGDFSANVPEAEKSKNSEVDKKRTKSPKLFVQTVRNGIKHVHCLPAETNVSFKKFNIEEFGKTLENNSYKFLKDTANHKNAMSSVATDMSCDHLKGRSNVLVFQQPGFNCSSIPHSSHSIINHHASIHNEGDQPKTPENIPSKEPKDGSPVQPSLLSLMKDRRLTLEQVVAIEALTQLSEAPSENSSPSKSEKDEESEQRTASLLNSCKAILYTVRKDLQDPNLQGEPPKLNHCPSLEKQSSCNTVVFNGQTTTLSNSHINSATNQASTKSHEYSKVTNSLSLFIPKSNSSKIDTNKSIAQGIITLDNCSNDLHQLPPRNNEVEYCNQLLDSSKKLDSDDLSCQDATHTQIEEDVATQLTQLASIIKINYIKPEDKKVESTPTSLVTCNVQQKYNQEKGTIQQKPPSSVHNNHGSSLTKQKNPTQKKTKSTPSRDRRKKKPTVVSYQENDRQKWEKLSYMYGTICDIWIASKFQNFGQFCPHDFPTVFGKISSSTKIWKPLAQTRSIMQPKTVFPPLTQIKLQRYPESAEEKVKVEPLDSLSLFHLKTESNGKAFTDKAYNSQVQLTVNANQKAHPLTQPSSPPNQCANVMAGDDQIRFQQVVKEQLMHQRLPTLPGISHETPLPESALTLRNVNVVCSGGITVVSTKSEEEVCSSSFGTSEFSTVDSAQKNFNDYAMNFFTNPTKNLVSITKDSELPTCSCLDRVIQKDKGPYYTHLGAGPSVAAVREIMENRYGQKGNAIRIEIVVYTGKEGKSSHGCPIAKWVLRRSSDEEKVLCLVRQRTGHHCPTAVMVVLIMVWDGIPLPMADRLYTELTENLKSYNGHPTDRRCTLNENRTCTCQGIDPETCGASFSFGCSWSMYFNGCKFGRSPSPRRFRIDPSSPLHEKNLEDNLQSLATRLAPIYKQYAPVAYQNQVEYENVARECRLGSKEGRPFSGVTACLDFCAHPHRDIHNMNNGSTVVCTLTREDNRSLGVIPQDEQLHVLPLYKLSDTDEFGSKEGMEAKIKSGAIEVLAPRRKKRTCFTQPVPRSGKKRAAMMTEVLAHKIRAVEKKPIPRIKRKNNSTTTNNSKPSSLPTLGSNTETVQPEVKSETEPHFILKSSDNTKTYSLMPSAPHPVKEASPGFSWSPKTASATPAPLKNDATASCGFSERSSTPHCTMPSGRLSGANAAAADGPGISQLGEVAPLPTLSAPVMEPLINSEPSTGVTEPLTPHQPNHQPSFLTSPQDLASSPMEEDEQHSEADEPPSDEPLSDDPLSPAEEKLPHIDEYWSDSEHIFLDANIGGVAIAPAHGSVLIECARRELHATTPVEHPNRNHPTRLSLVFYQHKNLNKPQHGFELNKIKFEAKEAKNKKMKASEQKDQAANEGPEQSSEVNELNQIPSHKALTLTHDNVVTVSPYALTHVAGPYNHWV
UniProt P02786, whole entry, looked up: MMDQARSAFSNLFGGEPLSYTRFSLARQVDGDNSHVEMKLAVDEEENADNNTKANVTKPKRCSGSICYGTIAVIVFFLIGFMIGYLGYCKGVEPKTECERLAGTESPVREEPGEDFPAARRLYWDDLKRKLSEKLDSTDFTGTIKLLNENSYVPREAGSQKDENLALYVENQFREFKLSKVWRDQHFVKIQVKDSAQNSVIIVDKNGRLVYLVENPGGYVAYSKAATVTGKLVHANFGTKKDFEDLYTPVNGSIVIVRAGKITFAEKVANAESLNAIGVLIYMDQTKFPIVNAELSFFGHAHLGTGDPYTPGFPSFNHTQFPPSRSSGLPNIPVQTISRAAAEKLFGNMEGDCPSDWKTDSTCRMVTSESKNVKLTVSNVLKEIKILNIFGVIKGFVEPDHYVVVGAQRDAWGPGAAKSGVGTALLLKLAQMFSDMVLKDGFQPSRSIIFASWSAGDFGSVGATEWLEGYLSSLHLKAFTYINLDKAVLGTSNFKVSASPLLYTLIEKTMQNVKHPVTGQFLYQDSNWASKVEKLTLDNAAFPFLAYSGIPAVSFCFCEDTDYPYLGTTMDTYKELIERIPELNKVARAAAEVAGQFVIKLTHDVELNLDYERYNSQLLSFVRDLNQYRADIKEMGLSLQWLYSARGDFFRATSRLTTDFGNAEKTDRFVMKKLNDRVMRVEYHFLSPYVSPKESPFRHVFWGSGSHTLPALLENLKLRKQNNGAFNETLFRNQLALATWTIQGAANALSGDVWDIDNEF

log2 fold change, inactive:
TBC1D13 (UniProt Q9NVG8) -0.025
TBC1D2 (UniProt Q9BYX2) -0.046
TEX264 (UniProt Q9Y6I9) 0.247
TANGO6 (UniProt Q9C0B7) -0.054
TAOK3 (UniProt Q9H2K8) -0.058
TANK (UniProt Q92844) 0.038
TBC1D15 isoform 3 (UniProt Q8TC07) 0.01
TEX10 (UniProt Q9NXF1) 0.031
TBC1D20 isoform 3 (UniProt Q96BZ9) -0.019
TBC1D2B (UniProt Q9UPU7) 0.076
TAF6L (UniProt Q9Y6J9) -0.044
TAOK1 (UniProt Q7L7X3) -0.021
TBP (UniProt P20226) -0.06
TARS2 (UniProt Q9BW92) 0.04
TERF2 (UniProt Q15554) 0.023
TBCK (UniProt Q8TEA7) -0.01
TCEAL4 isoform 2 (UniProt Q96EI5) 0.074
TBC1D22B (UniProt Q9NU19) -0.042
TBC1D8B (UniProt Q0IIM8) 0
TBC1D10A (UniProt Q9BXI6) -0.007
TFIP11 (UniProt Q9UBB9) -0.032
TFDP1 (UniProt Q14186) -0.005
TEPSIN, A0A1B0GV70 -0.071
TESC (UniProt Q96BS2) -0.03
TECR (UniProt Q9NZ01) -0.082
TET1 (UniProt Q8NFU7) -0.12
TFRC (UniProt P02786) -0.023
TBCE (UniProt Q15813) -0.019
TAF8 isoform 2 (UniProt Q7Z7C8) 0.043
TBCC (UniProt Q15814) -0.009
TAF9 (UniProt Q16594) -0.06
TAF9B (UniProt Q9HBM6) -0.281
TBL3 (UniProt Q12788) -0.022

A portion of the results above:
log2 fold change, inactive:
TARS2 (UniProt Q9BW92) 0.04
TERF2 (UniProt Q15554) 0.023
